Experimental data taken from PubChem BioAssay AID504465 (National Center for Advancing Translational Sciences (NCATS), 2011).
The whole screen tested about 2,100 compounds, of which about 210 (10%) were called active. The shares of active, inactive and inconclusive entries below differ from those in the screen. The call rests on the fitted dose curve; in most records, active means well fitted inhibition curve with a large enough effect; inconclusive means small, poorly fitted or top-dose-only effect, or effect the other way; inactive means no such curve, though single readings can be large or run the other way. Where the call is inconclusive, the potency comes from a doubtful curve fit.

Assay: IN Cell qHTS Assay for Inhibitors of the mTORC1 Signaling Pathway in MEF (Tsc2-/-, p53-/-) Cells: Sytravon; further: nearly all actives have a fitted effect of over 60% in size
Conditions: phospho-rpS6 immunofluorescence, 24 h; activity, negative = inhibition: at 38.3 µM (top of the series)
Procedure, shortened: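 Immunofluorescence of rpS6 phosphorylation (Ser235/236) in mouse embryonic fibroblasts lacking Tsc2 and p53, after 24 h compound exposure; Hoechst-normalized signal imaged, each well scored as % active cells relative to rapamycin (7.5 nM) and DMSO controls.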
Potency means the concentration at half of the fitted maximal effect.

Row | Structure (SMILES) | activity, negative = inhibition | Potency
1 | COc1cccc(-n2ccnc2SCC(=O)Nc2nc3ccc(C)cc3s2)c1 | inactive: -25% | 
2 | Cc1ccc(OCC(=O)Nc2nnc(SCc3cc(=O)n4cc(C)ccc4n3)s2)cc1 | inactive: 2.68% | 
3 | CCSc1ncc(Cl)c(C(=O)Nc2ccc(S(=O)(=O)N3CCCCC3CC)cc2)n1 (stereo unspecified) | inactive: -7.02% | 
4 | Cc1cccc(NC(=O)c2ccc(F)c(S(=O)(=O)NCc3ccc4c(c3)OCO4)c2)c1 | inactive: 6.25% | 
5 | CCN(CC)S(=O)(=O)c1ccc2nc(NC(=O)c3ccccc3OC)sc2c1 |  | inconclusive: 4.65 µM [falling, full curve, poor fit]
6 | COc1ccccc1CNC(=O)CCCn1c(=O)c2cccn2c2ccccc21 |  | inconclusive: 0.131 µM [falling, full curve, poor fit]
7 | CCN(CC)CCNC(=O)Cn1ncc2c3ccccc3n(Cc3ccccc3C)c2c1=O |  | inconclusive: 23.3 µM [falling, single point]
8 | Oc1ccc(Nc2nc(-c3ccc(Cl)cc3)nc3ccccc23)cc1 |  | inconclusive: 0.826 µM [falling, full curve, poor fit]
9 | Cc1cccc(-n2ncc3c(Nc4c(C)cc(C)cc4C)ncnc32)c1 |  | active: 3.69 µM
10 | CC(=O)C1=C(c2ccc(Cl)c(Cl)c2)N(C(C)=O)n2c(C)nnc2S1 |  | inconclusive: 18.5 µM [falling, single point]
11 | Cc1nn(-c2ccc(N3CCOCC3)nn2)c(C)c1CCC(=O)NCc1ccccc1F | inactive: -3.08% | 
12 | CCN1CCC(N(Cc2ccc(F)cc2)C(=O)Nc2cc(Cl)ccc2C(=O)OC)CC1 |  | inconclusive: 20.7 µM [falling, single point]
13 | COc1cc(C(=O)N2CC(=O)Nc3ccc(C)cc3C2c2ccc(F)cc2)cc(OC)c1OC (stereo unspecified) |  | inconclusive: 0.0927 µM [falling, full curve, poor fit]
14 | Cc1ccc(CNC(=O)CCCCCn2c(=O)c3sccc3n(CC(=O)Nc3ccc(C)c(F)c3)c2=O)cc1 | inactive: -29.7% | 
15 | CCN1C(C(=O)c2ccccc2)=C(OC(=O)COc2ccc(OC)cc2)c2ccccc2S1(=O)=O | inactive: -0.826% | 
16 | COc1ccc(-n2nnc(-c3nsc(NC(=O)c4ccc(C)c(C)c4)n3)c2C)cc1Cl | inactive: -25.9% | 
17 | O=C(CCS(=O)(=O)c1nc(-c2cccs2)cc(C(F)(F)F)n1)Nc1cc(Br)ccc1O |  | active: 7.36 µM
18 | Cc1cc(C)c(NC(=O)c2cc(S(=O)(=O)NCCC3=CCCCC3)ccc2F)c(C)c1 | inactive: 6.25% | 
19 | CCOC(=O)c1cnc2c(Cl)cc(Cl)cc2c1Nc1cc(C(=O)O)ccc1C | inactive: -7.51% | 
20 | O=C(Nc1ccc(Cl)cc1)c1cc(S(=O)(=O)N2CCCc3ccccc32)ccc1F | inactive: 6.25% | 
21 | Cc1c(C(=O)OC2CCC(C)CC2)[nH]c2c1C(=O)CC(c1ccccc1Cl)C2 (stereo unspecified) |  | inconclusive: 23.3 µM [activator, single point]

In a second layout: results already given
Row	Structure (SMILES)	activity, negative = inhibition	Potency
1	COc1cccc(-n2ccnc2SCC(=O)Nc2nc3ccc(C)cc3s2)c1	inactive: -25%	
2	Cc1ccc(OCC(=O)Nc2nnc(SCc3cc(=O)n4cc(C)ccc4n3)s2)cc1	inactive: 2.68%	
